For one molecule, binding results are on record in paper doi:10.1101/2025.07.10.664251.

In the assay the target is human recombinant insulin (human). The assay can be described thus: ELISA.

Results are given in words; binding and its absence hold for the method and conditions named. A result given as binding can be weak or reduced; the word gives no strength.

B1: RA32 antibody (antibody, V domains shown)
VH: QVQLRQPGIELAKSGTSVKLSCKASGFTFTSYWMHWVRQRPGQGLEWIGHINPNKDGINFNERFKTKATLTVDRSSATAFMQLSSLTSADSAVYYCARWGPGYFDYWGQGTTLTVSS
VL: DLVLTQSPASVAVSPGQRATISCRVSESIDNFGISFMNWFQQKPGQPPKLLIYFASKQGSGVPARFTGSGSGTNFSLNIHPMEEDDTAMYFCQQSKEVPYTFGGGTKLEIK
Consider B1, for which the binding result is recorded as “binds”.
